Assay results: PubChem BioAssay AID2685 (National Center for Advancing Translational Sciences (NCATS), 2010)
This is one part of the list. The main result of the screen is listed elsewhere. These columns were measured beside it and carry no call. The list favours compounds with an active or inconclusive main result. The note in brackets gives the kind of curve behind each potency; many fits are weak.

Experiment: qHTS Assay for Lipid Storage Modulators in Drosophila S3 Cells;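 on cell number change: cells counted by Cell Tracker Red CMTPX staining in the red channel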
Details: BODIPY lipid droplet fluorescence, 18-24 h; for cell number change: measured here: cell count max response, cells fed with added oleic acid
Outline: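 Drosophila S3 cells got compounds at several concentrations plus oleic acid (400 uM solution). Laser-scanning cytometry with 488 nm excitation read lipid droplets at 500-530 nm and cells at 575-640 nm. Percent activity was relative to 20 uM Triacsin C.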

[1] = measured here: cell number channel AC50, cells fed with added oleic acid
[2] = measured here: lipid fluorescence (Fed channel) AC50, cells fed with added oleic acid

SMILES	cell number change	AC50 [1]	AC50 [2]
CCCN1C(=O)S/C(=C\c2ccc(N3CCOCC3)o2)C1=O	-83.7%	18.4 µM [falling, single point]	23.1 µM [falling, single point]
CN(C)/C=C(\C=O)c1cccc(Cl)c1	-45.8%	29.1 µM [falling, single point]	1.46 µM [rising, single point]
O=C(Nc1ccc(N2CCCC2)cc1)c1ccc([N+](=O)[O-])cc1Cl	18.5%	–	0.164 µM [rising, full curve, poor fit]
CN(C)CCOC(=O)c1sc2ccccc2c1Cl	-13.7%	0.326 µM [falling, partial curve]	–
Cc1cc(NC(=O)CCN2C(=O)C3C4CCC(C4)C3C2=O)cc(C)c1Br (centres undefined)	-17.6%	–	29.1 µM [falling, single point]
Cc1cc(F)ccc1S(=O)(=O)Nc1ccc(C(=O)N(C)Cc2ccco2)cc1	-7.24%	–	0.259 µM [rising, partial curve, poor fit]
CCN1CCCc2cc(CN(CCN3CCOCC3)C(=O)Nc3ccc(C)c(C)c3)ccc21	–	0.259 µM [rising, full curve, poor fit]	0.00411 µM [rising, full curve, poor fit]
Cc1ccccc1-c1nnc(SCCOc2ccc3c(C)cc(=O)oc3c2)o1	54.2%	3.26 µM [rising, single point]	1.84 µM [rising, partial curve]
CC1(N2CCOCC2)CC2(O)C(=[N+]1[O-])CCc1nonc12 (centres undefined)	-8.5%	–	0.13 µM [rising, full curve, poor fit]
Cc1cc(-c2nn(-c3ccccc3F)cc2CN2CCCC(CO)C2)c(C)s1 (centres undefined)	-13.1%	–	32.6 µM [falling, partial curve]
CC(OC(=O)CCc1nc2ccccc2c(=O)[nH]1)C(=O)NCc1ccc2c(c1)OCO2 (centres undefined)	13.8%	–	5.17 µM [rising, partial curve]
CCOC(=O)C1=C(C)OC(N)=C(C(=O)OCC)C1c1cccnc1 (centres undefined)	-1.21%	–	0.00517 µM [rising, full curve, poor fit]
CC(=O)N(C)c1ccc(OCC(O)CN(Cc2ccco2)S(=O)(=O)c2ccc(C)cc2)cc1 (centres undefined)	107%	25.9 µM [rising, partial curve]	–
COC(=O)c1ccc(NC(=O)CN2C(=O)CC(C)S(=O)(=O)c3ccccc32)cc1 (centres undefined)	-6.87%	–	–
O=C(NCCc1ccc(Cl)cc1)C(=O)c1c[nH]c2ccccc12	91%	29.1 µM [rising, single point]	–
CC(C)Cc1ccc(S(=O)(=O)Nc2cccnc2)cc1	17.8%	–	–
COc1ccc(Cl)cc1NCC(=O)Nc1ccc(OC)c(S(=O)(=O)N2CCCCC2)c1	-19.6%	–	–
CCc1ccc2c(c1)C(c1ccc(N3CCOCC3)cc1)=NNC(c1ccncc1)=N2	-31%	29.1 µM [falling, single point]	32.6 µM [falling, single point]
Cc1ccc(NC(=O)CNC(c2ccccc2)c2ccccc2)c(F)c1	52.2%	10.3 µM [rising, partial curve]	–
COC(=O)Nc1ccc(N2CCOCC2)c(S(=O)(=O)N2CCOCC2)c1	10.7%	–	0.13 µM [falling, full curve, poor fit]
COCCNC(=S)NC(=O)CC12CC3CC(CC(C3)C1)C2	1.44%	–	0.103 µM [falling, full curve, poor fit]
COc1ccc2nc(NC(=O)c3cccc(S(=O)(=O)N4CCOCC4)c3)sc2c1	52.4%	11.6 µM [rising, partial curve]	–
CCOc1ccccc1CNC(=O)C1Cc2cc(S(=O)(=O)N3CCCCC3)ccc2N1C(C)=O (centres undefined)	-3.4%	0.00517 µM [falling, full curve, poor fit]	–
Cc1ccc(S(=O)(=O)CCC(=O)OCC(=O)N2CCN(c3ccccc3)CC2)cc1	-24.1%	–	0.013 µM [falling, full curve, poor fit]
COc1cccc(C(=O)Nc2nnc(SCC(=O)NC3CCCC3)s2)c1	11.3%	–	6.51 µM [falling, single point]
Cn1c(=O)[nH]c(=O)c2c1nc(NCc1ccco1)n2Cc1ccccc1Cl	34.4%	0.231 µM [rising, full curve, poor fit]	0.82 µM [rising, partial curve]
CCOCCCNC(=O)Cc1ccc(Br)cc1	-46.8%	32.6 µM [falling, single point]	–
COc1ccc(NC(=O)Cn2c3ccc(OC)cc3c3nc4n(c(=O)c32)CCS4)cc1	–	–	5.17 µM [falling, single point]
Cn1c(O)c(N=Nc2nc(-c3ccccc3)cs2)c2ccccc21	-12.2%	–	16.4 µM [rising, single point]

An excerpt from above in order of heavy-atom count, smallest number first:
SMILES	cell number change	AC50 [1]	AC50 [2]
CN(C)/C=C(\C=O)c1cccc(Cl)c1	-45.8%	29.1 µM [falling, single point]	1.46 µM [rising, single point]
CCOCCCNC(=O)Cc1ccc(Br)cc1	-46.8%	32.6 µM [falling, single point]	–
Cc1cc(F)ccc1S(=O)(=O)Nc1ccc(C(=O)N(C)Cc2ccco2)cc1	-7.24%	–	0.259 µM [rising, partial curve, poor fit]
